In the supplement of paper PMC7024190 one finds log data, which are given here for 40 compounds.

Counter-ions that a name gives are not always drawn. Some of the results follow. Repeats in this data set agree poorly, so a single value says little.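 The cells were human embryonic kidney cells carrying a Renilla luciferase gene, driven by the HSV-TK promoter, on a plasmid put in briefly by transfection. This is the first-round screen of about ten thousand compounds, looking for ones that raise reporter output.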

In this assay the test system is HEK 293FT. The assay is described as follows: log relative Renilla luciferase luminescence (reporter expression vs reference, reference not stated) (log (base not stated)); higher = higher recombinant reporter expression. The conditions noted are these: 10 µM; time after transfection 48 h.
`CCCCNc1c(C(=O)OCC)c(C)nc2c1cnn2CC` [Tracazolate hydrochloride]: the log was 0.0127.
For `N=C(N)SCCc1ccc(OCc2ccc([N+](=O)[O-])cc2)cc1` [KB-R7943 mesylate] the value was -0.0863; for `C#CCN1C(C)=C(C(=O)OC)C(c2cccc([N+](=O)[O-])c2)C(C(=O)OCC)=C1C` (stereo not given), 0.143; for `NC(C(=O)O)c1ccc(C(=O)O)c(C(=O)O)c1` (stereo not given), -0.076.
As to `CC(C)N(CCC(=O)c1ccc2ccccc2c1)Cc1ccccc1`, the log was -0.0512.
For `CN1CCN(C2=Cc3ccccc3Oc3ccc(Cl)cc32)CC1` the value was 0.0419; for `CCCn1c(=O)[nH]c2nc(-c3ccc(S(=O)(=O)O)cc3)[nH]c2c1=O`, -0.0548.
For `CN1CCC(Nc2ncc3ncnc(Nc4ccc(F)c(Cl)c4)c3n2)CC1` [BIBX 1382 dihydrochloride] the value was -0.0223.
For `NS(=O)(=O)c1cccc2c1c([N+](=O)[O-])cc1nc(O)c(O)nc12` [NBQX disodium salt] the value was 0.00743.
Regarding `CC1CCN=C(N)S1` (stereo not given) [AMT hydrochloride], the log is -0.199.
For `CC1(C)CCC(C)(C)c2cc(C(=O)Nc3ccc(C(=O)O)cc3)ccc21` the value was 0.00532; for `COc1[nH]c2ccc(F)cc2c1C(=O)OCC1CCN(CCNS(C)(=O)=O)CC1.NS(=O)(=O)O`, 0.0285; for `CN1CCC[C@@H]1CCO[C@](C)(c1ccccc1)c1ccc(Cl)cc1` [Clemastine fumarate], 0.0767.
For `c1ccc(CN2CCC3(CCc4ccccc43)CC2)cc1` [L-693,403 maleate], the log was 0.114.
`Cc1cccc(C(=O)NCN2CCN(c3ccccc3C#N)CC2)c1`: the log was 0.0863.
For `COC(=O)[C@H]1[C@H]2C[C@@H]3c4[nH]c5cc(OC)ccc5c4CCN3C[C@H]2C[C@@H](OC(=O)c2cc(OC)c(OC)c(OC)c2)[C@@H]1OC` [Reserpine] the value was -0.0748; for `N[C@@H](CSS(=O)(=O)O)C(=O)O` [S-Sulfo-L-cysteine sodium salt], -0.0903; for `O=C(Nc1ccncc1)c1cc([N+](=O)[O-])ccc1Cl`, -0.00861.
For `CNc1cc(OC)c(C(=O)NC2CCN(Cc3ccccc3)C2C)cc1Cl` (stereo not given) [Nemonapride] the value was 0.0616; for `CC(C)c1ccccc1S(=O)(=O)c1cc(N)c2ncccc2c1[N+](=O)[O-]`, 0.2.
Take `CCCCCS(=O)(=O)CCCCCCCCCCn1c(-c2ccc(O)cc2)c(C)c2cc(O)ccc21`: the log was 0.0486.
`CC(C)NCC(O)COc1ccccc1-n1cccc1` (stereo not given) [Isamoltane hemifumarate]: the log worked out at 0.0656.
With `CNC(=C[N+](=O)[O-])NCCSCc1ccc(CN(C)C)o1` [Ranitidine hydrochloride], the log stood at 0.103.
For `Cc1ccc(/C(=C\CN2CCCC2)c2ccccn2)cc1` [trans-Triprolidine hydrochloride] the value was 0.00954; for `CSc1ccc2c(c1)C(N1CCN(C)CC1)Cc1ccccc1S2` (stereo not given) [Methiothepin maleate], -0.0254.
For the compound `CCOCC(O)COc1ccc(NC(=O)CC[S+](C)C)cc1` (stereo not given) [Suplatast tosylate], the log is -0.0182.
Take `CC1(C)Oc2ccc(C#N)cc2[C@@H](N2CCCC2=O)[C@@H]1O` [Levcromakalim]: the log was found to be 0.0783.
For `C[C@@H](CN1CC(=O)NC(=O)C1)N1CC(=O)NC(=O)C1` [Dexrazoxane hydrochloride], the log was -0.0358.
For `C[C@@H](CN1CCC(n2c(=O)[nH]c3cc(Cl)ccc32)CC1)NC(=O)c1ccc2ccccc2c1` the value was 0.00532; for `C/N=C(/NC#N)NCCSCc1csc(NC(=N)N)n1` [Tiotidine], 0.204; for `CC[C@@H]1C(=O)OC[C@@H]1Cc1cncn1C` [Pilocarpine hydrochloride], 0.00106.
For the compound `COc1nc(C)nc(Cl)c1NC1=NCCN1` [Moxonidine hydrochloride], the log was -0.28.
For `Cc1cc(C)cc(C(=O)N(C)[C@H](Cc2ccc(-c3ccccc3)cc2)C(=O)N[C@@H](Cc2c[nH]c3ccccc23)C(=O)O)c1` the value was 0.191; for `COc1ccc(Br)cc1S(=O)(=O)NC(=O)/C=C/c1ccccc1Cc1ccc2ccccc2c1`, 0.0596.
For `Cc1ccc([N+](=O)[O-])cc1S(=O)(=O)N(C)C` the value was 0.026; for `O=S(=O)(c1cccc2cnccc12)N1CCCNCC1` [Fasudil hydrochloride], -0.141; for `Nc1nc(-c2ccc(Cl)c(Cl)c2)c(-c2ccncc2)s1` [CGH 2466 dihydrochloride], -0.0492.
For `Cc1c(CC(C)(C)C(=O)O)n(Cc2ccc(Cl)cc2)c2ccc(F)cc12` the value was 0.0384; for `C[C@H](NC(=O)/C(C#N)=C/c1ccc(O)c(O)c1)c1ccccc1` [Tyrphostin B44, (+) enantiomer], 0.121.
As for `O=C(O)C=C1CCCc2ccccc2C1O` (stereo not given), the log came out at 0.00213.
